The whole screen tested about 360,000 compounds, of which about 500 (0.14%) were called active. Inconclusive results, whose numbers are uncertain, are shown with a selection of clear calls.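 How the source made its calls: active means mean inhibition of at least 70% across replicates, with every replicate also reaching that level; inconclusive means mean inhibition reaches 70% but some replicates fall short; inactive means mean inhibition below 70%.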 More than one record can exist for a structure, and the calls need not agree.
biological target: Protein S100-A4 (Homo sapiens) (UniProt P26447); assay: inhibitors of S100A4-myosin IIA peptide binding, primary screen, biochemical, fluorescence polarization, TAMRA-MyoIIA peptide (AID 652163); details: at 10.7 µM, active compounds read high
Method in brief: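 incubation = readout 5 min after mixing, signal stable up to 60 min | system = S100A4 monomer protein | buffer or medium = HEPES pH 7.2 with CaCl2, KCl, NaCl, DTT, Triton | benchmarks = neutral control DMSO, positive control TFP | also added = fluorescent myosin IIA peptide, 5 nM | compound dosing = one concentration per compound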

Chains of the proteins cited; added tags and fusions are not shown.
UniProt P26447, whole entry, looked up: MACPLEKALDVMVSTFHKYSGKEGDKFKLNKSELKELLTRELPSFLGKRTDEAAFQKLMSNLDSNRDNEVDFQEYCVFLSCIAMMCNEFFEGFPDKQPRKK

inhibition, active:
COc1ccc(C)cc1NS(=O)(=O)c1ccc2c(c1)N(C)CCO2 83.8%
Cc1c2cc(O)c(=O)cc-2oc2cc(O)c(O)cc12 180%
Cc1ccccc1OCC(=O)Nc1ccc(S(=O)(=O)N2CCCC2)cc1 114%
CCCNC(=O)N1C[C@H](O)COC[C@@H]2O[C@@H](CC(=O)NCCCN3CCOCC3)CC[C@H]21 107%
O=C(C[C@@H]1CC[C@@H]2[C@H](COC[C@H](O)CN2C(=O)c2cccnc2)O1)NCc1ccc(Cl)cc1 94.1%
COc1ccc(NC(=O)N(C)C[C@H]2OCCCC[C@@H](C)Oc3ccc(NC(=O)NC4CCCCC4)cc3C(=O)N([C@H](C)CO)C[C@@H]2C)cc1 134%
O=C(c1ccccc1F)N1CC(=O)N2[C@@H](CO)[C@H](c3ccc(C#Cc4ccccc4)cc3)[C@@H]2C1 79.2%
COc1ccc2c3c(n(C)c2c1)[C@H](CO)N(C(=O)c1ccccc1)CC31CCN(C(=O)c2ccccc2)CC1 73%

inhibition, inconclusive:
O=S(=O)(c1ccc(NC(=S)NCc2ccc(F)cc2)cc1)N1CCOCC1 77.2%
C[C@H]1CN([C@@H](C)CO)C(=O)c2cc(NC(=O)CCC(F)(F)F)ccc2O[C@H]1CN(C)C(=O)Nc1ccccc1 72.4%
C[C@H]1CN([C@@H](C)CO)C(=O)c2cc(-c3cccc(C#N)c3)cnc2O[C@H]1CN(C)Cc1cccnc1 70.4%
C[C@H](CO)N1C[C@H](C)[C@H](CN(C)C(=O)Nc2ccc(C(F)(F)F)cc2)Oc2ncc(-c3cccnc3)cc2C1=O 107%
CCCN(C)C[C@@H]1OCCCC[C@H](C)Oc2ccc(NS(=O)(=O)c3ccc(C)cc3)cc2C(=O)N([C@@H](C)CO)C[C@H]1C 93.2%
C[C@H](CO)N1C[C@H](C)[C@@H](CN(C)Cc2ccc(C(=O)Nc3ccccc3N)cc2)Oc2c(NC(=O)C3CCCCC3)cccc2C1=O 99.7%
Oc1c(CN2CCOCC2)ccc(CN2CCOCC2)c1O 102%
c1ccc(-c2ccc(C(c3ccccc3)n3ccnc3)cc2)cc1 (stereo not drawn) 143%
C[C@H](CO)N1C[C@H](C)[C@H](CN(C)S(=O)(=O)c2cccs2)Oc2c(NC(=O)C3CCCCC3)cccc2C1=O 106%
CC(=O)N1C[C@@H](CO)[C@@H](N(C)C(=O)C2CCCCC2)C[C@H]1c1ccccc1 92.5%
CC(C)NC(=O)Nc1ccc2c(c1)C(=O)N([C@@H](C)CO)C[C@@H](C)[C@H](CN(C)S(=O)(=O)c1cccs1)OCCCC[C@H](C)O2 70.8%
C(=C\c1ccc(C2[C@@H]3CN(Cc4cccnc4)C[C@H]2N3)cc1)/c1ccccc1 (stereo partly drawn) 131%
O=[N+]([O-])/C(C(Cl)=C(Cl)Cl)=C(/NC1CC1)Sc1ccccc1 85.4%
O=C(NCc1ccccc1)C(c1cccc2ccccc12)n1c(=O)c(-c2ccco2)nc2ccccc21 (stereo not drawn) 71.4%
C[C@@H]1CN([C@H](C)CO)C(=O)c2cc(C#CC3(O)CCCC3)cnc2O[C@@H]1CN(C)C(=O)Nc1ccc2c(c1)OCO2 88.2%
CC(C)C#Cc1ccc2c(c1)O[C@H](CN(C)S(=O)(=O)c1cn(C)cn1)[C@@H](C)CN([C@H](C)CO)S2(=O)=O 73.6%
CCC(=O)Nc1ccc2c(c1)C(=O)N(C)[C@H]1CC[C@@H](CC(=O)N[C@H](C)c3ccccc3)O[C@@H]1CO2 82.9%
CC(C)N(Cc1ccccc1)C(=O)c1cnc2n(c1=O)CCS2 73%
COc1ccccc1-c1cccc(-c2nc(C(=O)Nc3nccs3)cc3c2[C@@H](CCO)N(C(=O)CC2CC2)C3)c1 102%
COc1ccc(-c2csc3ncnc(N4CCN(C(=O)c5ccco5)CC4)c23)cc1 70.4%
C[C@H](CO)N1C[C@H](C)[C@H](CN(C)S(C)(=O)=O)Oc2c(NC(=O)c3nc4ccccc4s3)cccc2C1=O 130%
CC1(C(=O)OCC(=O)Nc2nc(-c3ccc(F)c(F)c3)cs2)CC1(Cl)Cl (stereo not drawn) 108%
CN(C)CCCNC(=O)C[C@H]1CC[C@H]2[C@H](COc3ccc(NC(=O)c4ccc5c(c4)OCO5)cc3C(=O)N2C)O1 84.9%
O=C(C1CCCCC1)N1CC2(C1)[C@H](c1ccccc1)[C@@H](CO)N2Cc1cncnc1 70.8%
CCOc1cc(/C=C/c2cc(C(F)(F)F)[nH]c(=O)n2)ccc1O 71.7%
O=C(C[C@H]1CC[C@@H]2[C@H](COC[C@H](O)CN2C(=O)c2ccc3c(c2)OCO3)O1)NC1Cc2ccccc2C1 77.4%
CN(C)[C@@H]1CCC[C@H]1OC(=O)C(c1ccccc1)c1ccccc1 77.1%
C[C@H](O)C#Cc1ccc2c(c1)O[C@@H](CN(C)C(=O)C1CC1)[C@@H](C)CN([C@H](C)CO)S2(=O)=O 81.1%

Three entries already listed, ordered by heavy-atom count, largest number first:
inhibition, inconclusive:
C[C@@H]1CN([C@H](C)CO)C(=O)c2cc(C#CC3(O)CCCC3)cnc2O[C@@H]1CN(C)C(=O)Nc1ccc2c(c1)OCO2 88.2%
C[C@H](CO)N1C[C@H](C)[C@H](CN(C)S(=O)(=O)c2cccs2)Oc2c(NC(=O)C3CCCCC3)cccc2C1=O 106%
O=S(=O)(c1ccc(NC(=S)NCc2ccc(F)cc2)cc1)N1CCOCC1 77.2%

Next part.

inhibition, inactive:
COc1ccc(CNC(=O)N2CCc3nc(Nc4cc(OC)c(OC)c(OC)c4)ncc3C2)cc1 -1.71%
C[C@@H]1CN([C@@H](C)CO)C(=O)c2cccc(NS(=O)(=O)c3ccc(F)cc3)c2O[C@@H]1CN(C)S(C)(=O)=O 3.02%
CC1(C)NC(=O)N(CC(=O)OCC(=O)NC(=O)c2ccccc2)C1=O -3.29%
C[C@@H]1CN([C@@H](C)CO)S(=O)(=O)c2ccc(-c3ccc(F)cc3)cc2O[C@H]1CN(C)C(=O)Nc1ccccc1F -2.23%
O=C(COC(=O)c1ccc(Cl)nc1)c1ccc2c(c1)OCCO2 -1.4%
COc1ccc(NC(=O)Nc2ccc3c(c2)[C@@H]2C[C@@H](CC(=O)NC4CCCCC4)O[C@H](CO)[C@@H]2O3)cc1 4.29%
COc1ccccc1C#Cc1ccc([C@H]2[C@H](C#N)N(C(=O)C3CCCC3)[C@H]2CO)cc1 -2.17%

From PubChem BioAssay AID652163 (Broad Institute, 2013)
